The test concerns the target GTF2I-FLAG (human) (UniProt P78347). The test can be described thus: co-IP; FLAG pulldown assay trials: GTF2I-FLAG precipitated by its FLAG tag, endogenous GTF2I found with it; conditions of the trials not told.

The chains behind the UniProt entries cited, without tags or fusion partners.
UniProt P78347: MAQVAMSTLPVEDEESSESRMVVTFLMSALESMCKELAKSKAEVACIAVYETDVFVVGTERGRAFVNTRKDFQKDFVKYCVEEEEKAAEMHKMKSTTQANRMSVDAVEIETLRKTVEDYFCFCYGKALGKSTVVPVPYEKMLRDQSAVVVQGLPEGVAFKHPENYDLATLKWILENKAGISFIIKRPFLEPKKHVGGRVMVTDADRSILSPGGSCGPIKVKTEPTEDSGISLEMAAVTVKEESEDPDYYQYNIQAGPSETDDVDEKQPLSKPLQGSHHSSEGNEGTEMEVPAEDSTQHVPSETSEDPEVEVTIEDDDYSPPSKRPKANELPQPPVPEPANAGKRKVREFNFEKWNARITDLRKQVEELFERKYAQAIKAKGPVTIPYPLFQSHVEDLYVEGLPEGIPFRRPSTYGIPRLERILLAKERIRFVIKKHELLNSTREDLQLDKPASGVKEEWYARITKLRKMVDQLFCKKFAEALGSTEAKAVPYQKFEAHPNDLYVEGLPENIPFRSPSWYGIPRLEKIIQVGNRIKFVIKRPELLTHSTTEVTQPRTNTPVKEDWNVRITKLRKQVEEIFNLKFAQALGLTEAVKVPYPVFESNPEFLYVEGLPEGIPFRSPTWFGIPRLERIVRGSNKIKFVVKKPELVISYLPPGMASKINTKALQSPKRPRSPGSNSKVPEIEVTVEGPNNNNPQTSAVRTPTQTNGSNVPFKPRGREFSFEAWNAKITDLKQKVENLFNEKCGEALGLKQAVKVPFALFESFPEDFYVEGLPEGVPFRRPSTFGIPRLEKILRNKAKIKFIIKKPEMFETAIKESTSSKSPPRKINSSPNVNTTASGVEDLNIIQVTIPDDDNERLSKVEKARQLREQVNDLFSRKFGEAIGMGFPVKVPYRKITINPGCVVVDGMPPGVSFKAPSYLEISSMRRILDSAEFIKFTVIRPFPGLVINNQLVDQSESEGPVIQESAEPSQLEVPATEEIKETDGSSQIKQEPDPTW

Results are given in words; binding and its absence hold for the method and conditions named. Binding seen in cells or lysates may run through a third protein. Some binding calls cover weakened binding; strength is not graded here.

The values that follow come from paper PMC11335273.

As to “endogenous GTF2I (from UniProt P78347 1-998)”, the binding result is given as “binds”.
